SMILES strings stand for the structures. ± gives the standard deviation of the averaged measurements. This is one part of the list. Part of the spread comes from offsets between plates or batches.

For the first test, the system named is E18 rat cortical neuron-glia co-culture. The test is described as follows: total nuclei (DAPI) / Olig2+ nuclei (ratio); higher = more depletion of OPC/OL lineage cells. The following applies: 1 µM; treatment time: 8 days (DIV5-DIV13).
For the compound `CNCCCC12CCC(c3ccccc31)c1ccccc12` [Maprotiline], the total nuclei is 3.62.
Take `CCCc1nc2c(C)cc(-c3nc4ccccc4n3C)cc2n1Cc1ccc(-c2ccccc2C(=O)O)cc1` [Telmisartan]: the total nuclei is 3.2.
`CCC1(c2ccccc2)C(=O)NCNC1=O` [Primidone]: the total nuclei is 2.76.
Regarding `C[C@@H](c1ncncc1F)[C@](O)(Cn1cncn1)c1ccc(F)cc1F` [Voriconazole], the total nuclei was 3.9.
As to `NS(=O)(=O)c1cc2c(cc1Cl)N=CNS2(=O)=O` [Chlorothiazide], the total nuclei is 4.1.
For the compound `CN(C)C(=O)C(CCN1CCC(O)(c2ccc(Cl)cc2)CC1)(c1ccccc1)c1ccccc1` [Loperamide], the total nuclei came out at 3.13.
With `CCc1cc(C(N)=S)ccn1` [Ethionamide], the total nuclei was found to be 3.93.
For `COc1cc(C)c(Cc2cnc(N)nc2N)cc1OC` [Ormetoprim], the total nuclei was 4.32.
On to `CC[N+](C)(C)c1cccc(O)c1` [Edrophonium], for which the total nuclei is 3.4.
Consider `CCCc1cc(=O)[nH]c(=S)[nH]1` [Propylthiouracil], for which the total nuclei was determined as 2.71.
As to `CCCNC(=O)NS(=O)(=O)c1ccc(Cl)cc1` [Chlorpropamide], the total nuclei turned out to be 2.81.
For the compound `COc1c2occc2cc2ccc(=O)oc12` [Methoxsalen], the total nuclei was 4.16.
On to `CCN1CC(CCN2CCOCC2)C(c2ccccc2)(c2ccccc2)C1=O` (stereo unspecified) [Doxapram], for which the total nuclei came to 2.88.
As for `O=C(O)CCNC(=O)c1ccc(/N=N/c2ccc(O)c(C(=O)O)c2)cc1` [Balsalazide], the total nuclei amounted to 2.74.
In the case of `O=C(O[C@@H]1C[C@@H]2C[C@H]3C[C@H](C1)N2CC3=O)c1c[nH]c2ccccc12` [Dolasetron], the total nuclei came out at 2.93.
Still for that read-out and setting: in the case of `Nc1c2c(nc3ccccc13)CCCC2` [Tacrine] it was 3.44.
Same read-out and setting: in the case of `N[C@@H](C(=O)N[C@@H]1C(=O)N2C(C(=O)O)=C(CSc3c[nH]nn3)CS[C@H]12)c1ccc(O)cc1` [Cefatrizine] it was 4.4; in that of `CC(CCc1ccccc1)NCC(O)c1ccc(O)c(C(N)=O)c1` (stereo unspecified) [Labetalol], 3.03; in that of `Nc1nc(=O)[nH]cc1F` [Flucytosine], 4.98.
The same measure, in the same setting: in the case of `CCOC(=O)O[C@]1(C(=O)OCCl)CC[C@H]2[C@@H]3CCC4=CC(=O)C=C[C@]4(C)[C@H]3[C@@H](O)C[C@@]21C` [Loteprednol etabonate] it was 2.9.
As to `C[C@H]1[C@H](OC(=O)CCC(=O)O)O[C@@H]2O[C@@]3(C)CC[C@H]4[C@H](C)CC[C@@H]1[C@@]24OO3` [Artesunate], the total nuclei was 4.12.
As to `COc1cc(N)c(Cl)cc1C(=O)NC1CCN(CCCOc2ccc(F)cc2)CC1OC` (stereo unspecified) [Cisapride], the total nuclei was 3.3.
`CCN1CCC[C@H]1CNC(=O)c1c(O)c(Cl)cc(Cl)c1OC` [Raclopride]: the total nuclei amounted to 4.64.
On to `COc1cc(/C=C/c2ccc(O)cc2)cc(OC)c1` [Pterostilbene], for which the total nuclei was 3.5.
Still for that read-out and setting: in the case of `COc1ccnc(C[S+]([O-])c2nc3cc(OC(F)F)ccc3[nH]2)c1OC` (stereo unspecified) [Pantoprazole] it was 2.88.
The same measure, in the same setting: in the case of `C#C[C@]1(O)CC[C@H]2[C@@H]3CCC4=Cc5oncc5C[C@]4(C)[C@H]3CC[C@@]21C` [Danazol] it was 3.3.
For `Oc1c(Cl)cc(Cl)c2cccnc12` [Chloroxine], the total nuclei was 8.88.
On to `CCCCN1CCCCC1C(=O)Nc1c(C)cccc1C` (stereo unspecified) [Bupivacaine], for which the total nuclei was 2.78.
On to `COc1ccc(CC2c3cc(OC)c(OC)cc3CC[N+]2(C)CCC(=O)OCCCCCOC(=O)CC[N+]2(C)CCc3cc(OC)c(OC)cc3C2Cc2ccc(OC)c(OC)c2)cc1OC` (stereo unspecified) [Atracurium], for which the total nuclei was determined as 4.4.
For `CCOC(=O)[C@@]1(CCCCCCOc2ccc(Cl)cc2)CO1` [Etomoxir], the total nuclei was determined as 3.47.
As to `COCc1c(C(C)C)nc(C(C)C)c(/C=C/[C@@H](O)C[C@@H](O)CC(=O)O)c1-c1ccc(F)cc1` [Cerivastatin], the total nuclei was determined as 19.
Consider `NC1CCN(c2nc3c(cc2F)c(=O)c(C(=O)O)cn3-c2ccc(F)cc2F)C1` (stereo unspecified) [Tosufloxacin], for which the total nuclei worked out at 3.85.
As for `CCN(CC)CC#CCOC(=O)C(O)(c1ccccc1)C1CCCCC1` (stereo unspecified) [Oxybutynin], the total nuclei stood at 2.98.
For `Brc1c(NC2=NCCN2)ccc2nccnc12` [Brimonidine], the total nuclei was 2.71.
In the case of `C[C@]12C=CC(=O)C=C1CC[C@@H]1[C@@H]2C(=O)C[C@@]2(C)[C@H]1CC[C@]2(O)C(=O)CO` [Prednisone], the total nuclei amounted to 3.8.
For `COc1ccc(CN2CCN(C(c3ccc(F)cc3)c3ccc(F)cc3)CC2)c(OC)c1OC` [Lomerizine], the total nuclei came out at 3.01.
As for `Nc1ccc2cn[nH]c2c1` [6-Aminoindazole], the total nuclei came out at 3.5.
Regarding `CN(C)CCC(c1ccc(Cl)cc1)c1ccccn1` (stereo unspecified) [Chlorpheniramine], the total nuclei was 2.85 ± 0.19.

The test is the same for the next values; noted with them: 5 µM; treatment time: 8 days (DIV5-DIV13).
For the compound `CNCCCC12CCC(c3ccccc31)c1ccccc12` [Maprotiline], the total nuclei amounted to 5.5.
Take `CCCc1nc2c(C)cc(-c3nc4ccccc4n3C)cc2n1Cc1ccc(-c2ccccc2C(=O)O)cc1` [Telmisartan]: the total nuclei was determined as 4.5.
On the same count and under the same terms, in the case of `CCC1(c2ccccc2)C(=O)NCNC1=O` [Primidone] it was 2.8.
On to `C[C@@H](c1ncncc1F)[C@](O)(Cn1cncn1)c1ccc(F)cc1F` [Voriconazole], for which the total nuclei came out at 5.1.
Turning to `NS(=O)(=O)c1cc2c(cc1Cl)N=CNS2(=O)=O` [Chlorothiazide], the total nuclei was 5.9.
As to `CN(C)C(=O)C(CCN1CCC(O)(c2ccc(Cl)cc2)CC1)(c1ccccc1)c1ccccc1` [Loperamide], the total nuclei worked out at 5.2.
For the compound `CCc1cc(C(N)=S)ccn1` [Ethionamide], the total nuclei is 4.
`COc1cc(C)c(Cc2cnc(N)nc2N)cc1OC` [Ormetoprim]: the total nuclei was determined as 4.2.
For `CC[N+](C)(C)c1cccc(O)c1` [Edrophonium], the total nuclei came out at 3.
As to `CCCc1cc(=O)[nH]c(=S)[nH]1` [Propylthiouracil], the total nuclei amounted to 2.7.
Still for that read-out and setting: in the case of `CCCNC(=O)NS(=O)(=O)c1ccc(Cl)cc1` [Chlorpropamide] it was 4.4.
As for `COc1c2occc2cc2ccc(=O)oc12` [Methoxsalen], the total nuclei turned out to be 4.1.
On the same count and under the same terms, in the case of `CCN1CC(CCN2CCOCC2)C(c2ccccc2)(c2ccccc2)C1=O` (stereo unspecified) [Doxapram] it was 2.8; in that of `O=C(O)CCNC(=O)c1ccc(/N=N/c2ccc(O)c(C(=O)O)c2)cc1` [Balsalazide], 2.9.
`O=C(O[C@@H]1C[C@@H]2C[C@H]3C[C@H](C1)N2CC3=O)c1c[nH]c2ccccc12` [Dolasetron]: the total nuclei amounted to 3.
For `Nc1c2c(nc3ccccc13)CCCC2` [Tacrine], the total nuclei was found to be 3.3.
On to `N[C@@H](C(=O)N[C@@H]1C(=O)N2C(C(=O)O)=C(CSc3c[nH]nn3)CS[C@H]12)c1ccc(O)cc1` [Cefatrizine], for which the total nuclei turned out to be 4.5.
For the compound `CC(CCc1ccccc1)NCC(O)c1ccc(O)c(C(N)=O)c1` (stereo unspecified) [Labetalol], the total nuclei was 2.8.
Same read-out and setting: in the case of `Nc1nc(=O)[nH]cc1F` [Flucytosine] it was 4.7; in that of `CCOC(=O)O[C@]1(C(=O)OCCl)CC[C@H]2[C@@H]3CCC4=CC(=O)C=C[C@]4(C)[C@H]3[C@@H](O)C[C@@]21C` [Loteprednol etabonate], 3; in that of `C[C@H]1[C@H](OC(=O)CCC(=O)O)O[C@@H]2O[C@@]3(C)CC[C@H]4[C@H](C)CC[C@@H]1[C@@]24OO3` [Artesunate], 13.1.
As for `COc1cc(N)c(Cl)cc1C(=O)NC1CCN(CCCOc2ccc(F)cc2)CC1OC` (stereo unspecified) [Cisapride], the total nuclei is 3.4.
For `CCN1CCC[C@H]1CNC(=O)c1c(O)c(Cl)cc(Cl)c1OC` [Raclopride], the total nuclei amounted to 4.7.
Same read-out and setting: in the case of `COc1cc(/C=C/c2ccc(O)cc2)cc(OC)c1` [Pterostilbene] it was 19.1; in that of `COc1ccnc(C[S+]([O-])c2nc3cc(OC(F)F)ccc3[nH]2)c1OC` (stereo unspecified) [Pantoprazole], 3; in that of `C#C[C@]1(O)CC[C@H]2[C@@H]3CCC4=Cc5oncc5C[C@]4(C)[C@H]3CC[C@@]21C` [Danazol], 3.1.
As to `Oc1c(Cl)cc(Cl)c2cccnc12` [Chloroxine], the total nuclei was greater than 40.
Same read-out and setting: in the case of `CCCCN1CCCCC1C(=O)Nc1c(C)cccc1C` (stereo unspecified) [Bupivacaine] it was 3; in that of `COc1ccc(CC2c3cc(OC)c(OC)cc3CC[N+]2(C)CCC(=O)OCCCCCOC(=O)CC[N+]2(C)CCc3cc(OC)c(OC)cc3C2Cc2ccc(OC)c(OC)c2)cc1OC` (stereo unspecified) [Atracurium], 8.3; in that of `CCOC(=O)[C@@]1(CCCCCCOc2ccc(Cl)cc2)CO1` [Etomoxir], 3.8.
As to `COCc1c(C(C)C)nc(C(C)C)c(/C=C/[C@@H](O)C[C@@H](O)CC(=O)O)c1-c1ccc(F)cc1` [Cerivastatin], the total nuclei was greater than 40.
Consider `NC1CCN(c2nc3c(cc2F)c(=O)c(C(=O)O)cn3-c2ccc(F)cc2F)C1` (stereo unspecified) [Tosufloxacin], for which the total nuclei was 4.1.
With `CCN(CC)CC#CCOC(=O)C(O)(c1ccccc1)C1CCCCC1` (stereo unspecified) [Oxybutynin], the total nuclei was 3.4.
Take `Brc1c(NC2=NCCN2)ccc2nccnc12` [Brimonidine]: the total nuclei came out at 3.1.
In the case of `C[C@]12C=CC(=O)C=C1CC[C@@H]1[C@@H]2C(=O)C[C@@]2(C)[C@H]1CC[C@]2(O)C(=O)CO` [Prednisone], the total nuclei came out at 3.8.
As to `COc1ccc(CN2CCN(C(c3ccc(F)cc3)c3ccc(F)cc3)CC2)c(OC)c1OC` [Lomerizine], the total nuclei was found to be 4.9.
Turning to `Nc1ccc2cn[nH]c2c1` [6-Aminoindazole], the total nuclei turned out to be 2.8.
On to `CN(C)CCC(c1ccc(Cl)cc1)c1ccccn1` (stereo unspecified) [Chlorpheniramine], for which the total nuclei is 2.85 ± 0.21.

The record behind these values is the supplement of paper PMC4840960.
